From PubChem BioAssay AID1487 (National Center for Advancing Translational Sciences (NCATS), 2009) come the findings set out here.

This experiment is described as follows: qHTS Assay for Modulators of Lamin A Splicing. The settings on record: HeLa LMNA splicing GFP/RFP minigene ratio, 48 h. An outline of the steps: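 Read-out is the ratio of GFP to DsRed2 object intensity, acquired by 488 nm laser-scanning cytometry on HeLa lamin A-EGFP minigene reporter cells. Compound incubation 48 hrs at 37 °C in Opti-MEM with 2% FBS; DMSO 0.5% final.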
A general note: In qHTS, concentration-response curves come from the screen itself.

Setting [1] is: measured here: RFP viability control channel.
The mark [2] stands for this setting: measured here: GFP splicing reporter channel.

Some of the results follow. The main result of the screen is listed elsewhere. These columns were measured beside it and carry no call. Compounds called inactive in the main read-out are mostly missing here. Potencies come from curve fits of mixed quality, noted in brackets.

As a reminder, the AC50 is the concentration giving half of the maximal activity seen. `Cc1ccc2nc(SCC(=O)NC3CCCc4ccccc43)[nH]c2c1` (configuration not stated): the AC50 under setting [1] is 35.5 µM [rising, single point].
For the compound `CCOc1cc(NC(=O)c2ccccn2)c(OCC)cc1NC(=O)c1cccc(C)c1`, the concentration at half-maximal activity (AC50) runs as follows: under setting [2], 17.8 µM [rising, partial curve]; under setting [1], 10 µM [rising, partial curve].
For `COC(=O)c1cc2oc(C)cc2n1Cc1ccc(C)cc1`, under setting [1], the AC50 is 35.5 µM [rising, single point].
As to `COc1ccc(C(Nc2ccccn2)c2c(NC(=O)c3ccco3)sc(C)c2C)cc1` (configuration not stated), the AC50 under setting [1] is 15.8 µM [rising, partial curve, poor fit].
`O=C1S/C(=C\c2ccc(N3CCOCC3)o2)C(=O)N1Cc1c(F)cccc1Cl`: the half-maximal activity concentration (AC50) is 35.5 µM [falling, single point] under setting [2] and 12.6 µM [falling, partial curve] under setting [1].
Regarding `Cc1cc(C)c2nc(NNC(=O)c3ccc(S(=O)(=O)N4CCc5ccccc5C4)cc3)sc2c1`, the AC50 under setting [1] was 2.82 µM [rising, single point].
Turning to `COc1ccc(-c2cc(CNC(=O)CCl)on2)cc1`, the concentration at half-maximal activity (AC50) under setting [2] was 3.55 µM [falling, single point] and the concentration at half-maximal activity (AC50) under setting [1] is 35.5 µM [falling, single point].
Turning to `Cn1nc(-c2ccc(C(=O)Nc3ccc(OC(F)(F)F)cc3)cc2)c2ccccc2c1=O`, the AC50 under setting [2] was 3.16 µM [rising, single point].
Turning to `OC(CNc1ccccc1)COc1ccc(OCC(O)CNc2ccccc2)cc1` (configuration not stated), the AC50 under setting [2] is 6.31 µM [rising, full curve, poor fit].
For the compound `COc1cc(/C=C(\C#N)c2ccccn2)ccc1OCC(=O)Nc1c(Cl)cccc1Cl`, the AC50 by setting is: under setting [2], 10 µM [rising, partial curve]; under setting [1], 11.2 µM [rising, partial curve].
With `Cc1ccc(-n2c(SCc3ccccc3C)nc3[nH]ncc3c2=O)cc1C`, the half-maximal activity concentration (AC50) under setting [1] is 0.00398 µM [rising, full curve, poor fit].
Turning to `Cc1[nH]n(-c2ccccc2)c(=O)c1/C=N/N(C)c1ccccc1`, under setting [2], the AC50 is 17.8 µM [rising, partial curve].
Consider `O=c1cc(CN2CCN(C/C=C/c3ccccc3)CC2)c2cc(O)ccc2o1`, for which the AC50 runs as follows: under setting [2], 6.31 µM [rising, partial curve, poor fit]; under setting [1], 11.2 µM [rising, partial curve].
As to `O=C(NCc1ccccc1Cl)C(=O)NCC(c1cccs1)S(=O)(=O)c1ccccc1` (configuration not stated), the AC50 under setting [2] is 35.5 µM [falling, single point].
On to `COc1ccc(Oc2ccc(/C=C/C(=O)c3ccc(O)cc3)cc2[N+](=O)[O-])cc1`, for which the concentration at half-maximal activity (AC50) was 1.26 µM [rising, full curve, poor fit] under setting [2] and 35.5 µM [falling, single point] under setting [1].
Consider `CC(NC(=O)c1cccc2ccccc12)c1ccc2c(c1)CCCC2` (configuration not stated), for which, under setting [1], the AC50 was 3.98 µM [rising, single point].
Consider `CCN(CC)S(=O)(=O)c1ccc(/C=C/C(=O)Nc2ccc(F)cc2F)cc1`, for which the AC50 under setting [1] is 22.4 µM [rising, partial curve, poor fit].
With `CCOc1ccc(OCc2ccc(C(=O)N3CCOCC3)cc2)cc1`, the AC50 under setting [1] was 31.6 µM [rising, single point].
For `Cc1cccc(-n2ncc(C(=O)Nc3ccc4c(c3)OCO4)c2C2CCN(C(=O)OC(C)(C)C)CC2)c1`, the concentration at half-maximal activity (AC50) under setting [1] is 35.5 µM [rising, single point].
`CN(C)S(=O)(=O)c1ccc(N2CCCC2)c(C(=O)Nc2nc3ccc(F)cc3s2)c1`: the AC50 under setting [2] is 3.55 µM [rising, partial curve] and the concentration at half-maximal activity (AC50) under setting [1] is 3.16 µM [rising, partial curve].
For `Cc1ccc(C(=O)OCn2ncc(Cl)c(Cl)c2=O)cc1`, the AC50 is 3.16 µM [falling, full curve] under setting [2] and 3.55 µM [falling, full curve] under setting [1].
Consider `CCCCNc1c(C(=O)OCC)c(=O)[nH]c2ccccc12`, for which the half-maximal activity concentration (AC50) under setting [2] was 10 µM [rising, partial curve] and the AC50 under setting [1] is 12.6 µM [rising, single point].
`CCc1ccc(/C=C2\Oc3cc(OS(C)(=O)=O)ccc3C2=O)cc1`: under setting [1], the concentration at half-maximal activity (AC50) was 35.5 µM [rising, single point].
Take `O=C(O)C1CSC(c2ccccc2Cl)N1C(=O)c1ccc(Cl)cc1` (configuration not stated): the AC50 is 5.62 µM [falling, partial curve, poor fit] under setting [2] and 10 µM [falling, partial curve, poor fit] under setting [1].
As for `O=C(CSc1nnc(C2CC2)n1Cc1ccccc1)c1cc2ccccc2o1`, under setting [1], the half-maximal activity concentration (AC50) was 11.2 µM [rising, partial curve, poor fit].
As for `Cc1csc(N/N=C/c2ccc(O)c([N+](=O)[O-])c2)n1`, under setting [1], the concentration at half-maximal activity (AC50) is 31.6 µM [rising, single point].
As for `O=C(NCCCN1CCOCC1)c1ccc(Sc2ccc(Br)cc2)c([N+](=O)[O-])c1`, under setting [1], the half-maximal activity concentration (AC50) was 1 µM [rising, full curve, poor fit].
`O=C1NC(=Nc2ccc(Cl)cc2)SC1Cc1cc(Cl)ccc1Cl` (configuration not stated): under setting [1], the half-maximal activity concentration (AC50) is 35.5 µM [rising, single point].
Take `COC(=O)c1ccc(OC)c(CSc2nnc(COc3cccc(C)c3)o2)c1`: the AC50 under setting [2] was 35.5 µM [rising, single point] and the AC50 under setting [1] was 31.6 µM [rising, single point].
For `Cc1ccc(NS(=O)(=O)c2cc(C(=O)Nc3cccc(N(C)S(C)(=O)=O)c3)ccc2C)c(C)c1`, the AC50 under setting [1] was 35.5 µM [rising, single point].
On to `COc1cc(OC)cc(C(=O)N[C@H](C(=O)NCc2cccs2)C(C)C)c1`, for which the half-maximal activity concentration (AC50) under setting [1] is 0.0158 µM [rising, full curve, poor fit].
As to `O=C(Nc1ccc(F)cc1)OCCN1CCN(Cc2ccccc2)CCC1=O`, the AC50 reads like this: under setting [2], 35.5 µM [rising, single point]; under setting [1], 35.5 µM [rising, single point].
Regarding `CC(C)N1CCC2(CC1)N=C(c1ccc3c(c1)OCO3)CC(c1cc(Cl)ccc1O)N2` (configuration not stated), the AC50 under setting [2] was 3.16 µM [falling, single point].
With `Cc1ccc(NC(=S)NCCSc2ccc(Cl)cc2)c(C)c1`, the AC50 under setting [2] is 35.5 µM [rising, single point].
In the case of `CCCC(O)(CCC)C(=O)NN(C(=O)CCl)c1cccc(C)c1`, the AC50 under setting [1] was 35.5 µM [falling, single point].
In the case of `CC(C)CNC(=O)Nc1ccc(F)c(Cl)c1`, the AC50 under setting [1] is 5.62 µM [rising, partial curve, poor fit].
For `Cc1cc(-n2c(C)cc(C(=O)CCl)c2C)no1`, under setting [1], the concentration at half-maximal activity (AC50) is 22.4 µM [rising, single point].
For `O=C(Nc1cc(Cl)cc(Cl)c1)C(c1ccccc1)N1CCCCC1` (configuration not stated), the concentration at half-maximal activity (AC50) under setting [1] is 7.94 µM [rising, partial curve].
For the compound `CN(c1ccc(OCC(=O)Nc2nc3ccccc3s2)cc1)S(=O)(=O)c1ccccc1`, under setting [1], the AC50 is 17.8 µM [rising, single point].
`Cc1ccc2[nH]c(CSc3nnc(NC(=O)c4ccccc4F)s3)cc(=O)c2c1`: the concentration at half-maximal activity (AC50) is 10 µM [falling, partial curve, poor fit] under setting [2] and 15.8 µM [falling, partial curve] under setting [1].
`O=C(CCSCc1cccc(Cl)c1)NCc1ccc(F)cc1Cl`: the AC50 under setting [1] was 35.5 µM [falling, partial curve, poor fit].
Consider `Cc1cccc(CCNC(=O)c2ccc(CSCc3cccc(Cl)c3)o2)c1`, for which the AC50 under setting [2] is 12.6 µM [rising, partial curve] and the AC50 under setting [1] is 12.6 µM [rising, partial curve].
`O=c1cc(CCl)nc2sc3ccccc3n12`: under setting [2], the AC50 was 0.00501 µM [falling, full curve, poor fit].
As to `Cc1nn(Cc2ccccc2)c(Cl)c1/C=N/NC(=O)CNc1cccc(C(F)(F)F)c1`, under setting [1], the AC50 is 20 µM [rising, partial curve, poor fit].
Take `CCOc1ccc(NC(=O)c2c(Nc3ccccc3C)sc(C(=O)c3ccc(Cl)cc3)c2N)cc1`: the half-maximal activity concentration (AC50) under setting [1] is 4.47 µM [falling, single point].
On the same count and under the same terms, for `COc1ccc(NS(=O)(=O)c2ccc(N3CCCC3)c(NC(=S)Nc3cccc(C)c3C)c2)cc1` the value was 11.2 µM [rising, single point].
As to `Cc1cccc(C2Nc3ccccc3C(=O)N2CCc2ccccc2)n1` (configuration not stated), the AC50 under setting [1] is 7.94 µM [rising, partial curve].
Turning to `COc1cccc(C(=O)N2CCN(C3CCC(c4ccccc4)CC3)CC2)c1` (configuration not stated), the AC50 under setting [1] was 15.8 µM [rising, single point].
Turning to `C/C(=C1/SC(N2CCCC2)=NC1=O)c1ccc(Br)cc1`, the AC50 under setting [2] was 12.6 µM [falling, partial curve].
For the compound `CCOC(=O)C1(CCOc2ccccc2)CCN(Cc2cccn2-c2cccnc2)CC1`, the half-maximal activity concentration (AC50) is 35.5 µM [falling, partial curve, poor fit] under setting [2] and 0.708 µM [falling, full curve, poor fit] under setting [1].
As for `COc1ccc2[nH]cc(CCNc3ccnc(-c4ccccc4C)n3)c2c1`, under setting [2], the AC50 was 11.2 µM [falling, single point].
Regarding `Cc1cccc2c1N(C(=O)CN1C(=O)c3ccccc3C1=O)C(C)(C)c1ssc(=S)c1-2`, the half-maximal activity concentration (AC50) under setting [1] is 0.0708 µM [rising, full curve].
As for `CCc1nnc(NC(=O)COc2ccc([N+](=O)[O-])cc2)s1`, under setting [2], the AC50 is 3.98 µM [rising, full curve, poor fit].
Take `Cc1ccc2nc(NC(=O)C3CCCN(S(=O)(=O)c4cccnc4)C3)sc2c1` (configuration not stated): under setting [1], the AC50 was 31.6 µM [rising, single point].
Turning to `Nc1cc(=O)[nH]c(SCC(=O)Nc2nc3ccc([N+](=O)[O-])cc3s2)n1`, under setting [2], the AC50 was 0.126 µM [rising, full curve, poor fit].
Regarding `COc1ccc(Cc2noc(-c3ccccc3)n2)cc1OC`, the half-maximal activity concentration (AC50) under setting [1] is 20 µM [rising, single point].
Turning to `Cc1ccc(Cl)cc1N1CCN(Cc2nnnn2C2CCCCC2)CC1`, the AC50 under setting [1] was 35.5 µM [falling, single point].
